Laboratory results taken from patent publication US12065471B2, “B*44 restricted peptides for use in immunotherapy against cancers and related methods” (Immatics Biotechnologies GmbH, priority 2018, dated 2024).

System: HLA molecules of primary tumor and normal tissue samples
Test: Identification and quantitation of tumor associated peptides presented on the cell surface (HLA immunoprecipitation, label-free LC-MS)
Design: species or system human
Conditions: cancer entities on which the peptide was found presented (HLA immunoprecipitation, LC-MS); abbreviations in table footnotes

Substance	Peptide Presentation on cancer entities
323 (SETAVVNVTY; listed as Homo sapiens) [compound 323]	GBC, NSCLCadeno
324 (QELSSIRQF; listed as Homo sapiens) [compound 324]	NHL
326 (RELLDFSSW; listed as Homo sapiens) [compound 326]	CRC, MEL, UBC, UEC
329 (SEPQITVNF; listed as Homo sapiens) [compound 329]	BRCA, GBC
331 (KELEATKQYL; listed as Homo sapiens) [compound 331]	NSCLCsquam, OSCAR
332 (SEADWLRFW; listed as Homo sapiens) [compound 332]	AML, BRCA, CCC, CLL, CRC, HCC, HNSCC, MEL, NHL, NSCLCadeno, NSCLCsquam, OC, OSCAR, PACA, PRCA, RCC, UBC, UEC
333 (SEGTLPYSY; listed as Homo sapiens) [compound 333]	GC, NSCLCsquam, OSCAR
334 (LEWQNSSSM; listed as Homo sapiens) [compound 334]	NHL
336 (QEVNISLHY; listed as Homo sapiens) [compound 336]	BRCA, CRC, HNSCC, NSCLCsquam, OSCAR
337 (VEVIPEGAML; listed as Homo sapiens) [compound 337]	CLL
341 (HELESENKKW; listed as Homo sapiens) [compound 341]	AML, NHL, NSCLCsquam, OSCAR
342 (SENKKWVEF; listed as Homo sapiens) [compound 342]	CLL, CRC, NHL, NSCLCsquam
343 (SEFDLEQVW; listed as Homo sapiens) [compound 343]	HNSCC, NHL, NSCLCsquam
344 (DEIRVFGY; listed as Homo sapiens) [compound 344]	HCC
345 (AEYQAAILHL; listed as Homo sapiens) [compound 345]	MEL
346 (EEIENLQAQF; listed as Homo sapiens) [compound 346]	MEL
347 (LENPHVQSV; listed as Homo sapiens) [compound 347]	AML
351 (EEGRVYVY; listed as Homo sapiens) [compound 351]	GC, NSCLCsquam, OSCAR, PRCA
352 (QEDELVKIRKY; listed as Homo sapiens) [compound 352]	BRCA, CCC, CRC, HCC, MEL, NHL, NSCLCadeno, NSCLCsquam, OC, OSCAR, PACA, PRCA, RCC, SCLC, UEC
353 (AETEEGIYW; listed as Homo sapiens) [compound 353]	HNSCC
354 (TEIMEKTTL; listed as Homo sapiens) [compound 354]	CCC
355 (SETSTGTSV; listed as Homo sapiens) [compound 355]	NSCLCadeno, PACA
356 (TEAVLNRY; listed as Homo sapiens) [compound 356]	GC, NSCLCsquam, OSCAR
357 (AELMDKPLTF; listed as Homo sapiens) [compound 357]	CRC, NSCLCadeno
358 (TEFHGGLHY; listed as Homo sapiens) [compound 358]	BRCA, CRC, GC, HCC, HNSCC
359 (NEFRRKLTF; listed as Homo sapiens) [compound 359]	SCLC

Substance	Peptide Presentation on cancer entities
360 (DEMENLLTY; listed as Homo sapiens) [compound 360]	BRCA, CLL, HCC, NHL, NSCLCsquam, OSCAR, PRCA, UEC
361 (EDASLMGLY; listed as Homo sapiens) [compound 361]	GBM
363 (EECDKAFHF; listed as Homo sapiens) [compound 363]	BRCA, CCC, CLL, CRC, GC, HNSCC, NHL, NSCLCadeno, NSCLCsquam, OC, OSCAR, PACA, PRCA, UBC
364 (EECDKAYSF; listed as Homo sapiens) [compound 364]	BRCA, CCC, CLL, CRC, GC, HCC, HNSCC, NHL, NSCLCadeno, NSCLCsquam, OC, OSCAR, PACA, PRCA, RCC, UBC, UEC
365 (NESGKAFNY; listed as Homo sapiens) [compound 365]	BRCA, CCC, CLL, CRC, GBM, GC, HCC, HNSCC, MEL, NHL, NSCLCadeno, NSCLCsquam, OC, OSCAR, PACA, PRCA, RCC, UBC, UEC
366 (EECGKAFKKF; listed as Homo sapiens) [compound 366]	CLL
368 (KEKVPGITI; listed as Homo sapiens) [compound 368]	AML, MEL, NSCLCadeno, NSCLCsquam, OSCAR, PACA
369 (KELEERMLHW; listed as Homo sapiens) [compound 369]	HNSCC, MEL, NHL, NSCLCadeno
370 (EEVLLANALW; listed as Homo sapiens) [compound 370]	CLL, CRC, HCC, NHL, UBC
372 (EEYKFPSLF; listed as Homo sapiens) [compound 372]	BRCA, CLL, CRC, OC
374 (NEAEWQEIL; listed as Homo sapiens) [compound 374]	CLL
375 (HEATFGEKRF; listed as Homo sapiens) [compound 375]	CCC, GBC, HNSCC, NSCLCsquam, OC, OSCAR, PACA, PRCA, UEC
378 (QELFLQEVRM; listed as Homo sapiens) [compound 378]	BRCA, CRC, HCC, HNSCC, MEL, NSCLCadeno, NSCLCsquam, OC, OSCAR, PRCA
379 (AENRVGKMEA; listed as Homo sapiens) [compound 379]	CLL
380 (EECGKAFRVF; listed as Homo sapiens) [compound 380]	CLL, CRC, NHL
381 (QELMAFSFAGL; listed as Homo sapiens) [compound 381]	OSCAR
382 (SELNPLALY; listed as Homo sapiens) [compound 382]	HNSCC
383 (EEMERDLDMY; listed as Homo sapiens) [compound 383]	CLL, MEL, NHL, NSCLCsquam, UEC
384 (LDGIPTAGW; listed as Homo sapiens) [compound 384]	CLL, NHL
385 (LEHPFLVNLW; listed as Homo sapiens) [compound 385]	CLL, RCC
387 (GEVQENYKL; listed as Homo sapiens) [compound 387]	NSCLCsquam
388 (VEIVTIPSL; listed as Homo sapiens) [compound 388]	CLL, UEC
389 (DEQRRQNVAY; listed as Homo sapiens) [compound 389]	CRC, MEL, OSCAR
394 (SEILRVTLY; listed as Homo sapiens) [compound 394]	AML, CRC, HCC, NSCLCadeno, NSCLCsquam, OC, PACA
396 (MELLFLDTF; listed as Homo sapiens) [compound 396]	CLL, NHL
397 (EECGKAFSVF; listed as Homo sapiens) [compound 397]	CLL
